Assay results: publication PMC4207637
These are yes or no findings as the source states them, for the method shown. Binding seen in cells or lysates may run through a third protein. Binding calls can cover weak binding; strength is not graded here.

The chains behind the UniProt entries cited, without tags or fusion partners. Where a name states a change or a piece, a line headed by the entry shows the natural chain unless it says otherwise.
UniProt Q3UV17: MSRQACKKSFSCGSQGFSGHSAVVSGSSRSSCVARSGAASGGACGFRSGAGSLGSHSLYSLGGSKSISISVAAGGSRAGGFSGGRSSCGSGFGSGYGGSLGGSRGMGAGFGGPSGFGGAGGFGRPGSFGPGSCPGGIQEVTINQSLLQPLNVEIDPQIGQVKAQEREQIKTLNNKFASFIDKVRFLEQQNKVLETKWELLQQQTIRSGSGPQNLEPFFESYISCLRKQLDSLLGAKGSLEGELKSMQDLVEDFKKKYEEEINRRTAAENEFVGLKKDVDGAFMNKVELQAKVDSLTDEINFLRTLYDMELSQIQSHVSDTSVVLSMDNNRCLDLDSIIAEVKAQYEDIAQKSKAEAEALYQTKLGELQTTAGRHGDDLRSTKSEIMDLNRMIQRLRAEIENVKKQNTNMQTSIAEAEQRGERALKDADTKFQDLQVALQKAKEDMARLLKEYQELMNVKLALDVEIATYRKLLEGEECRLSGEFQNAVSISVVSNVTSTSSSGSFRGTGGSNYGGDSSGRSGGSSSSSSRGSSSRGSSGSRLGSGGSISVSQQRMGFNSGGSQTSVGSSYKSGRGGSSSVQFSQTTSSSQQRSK

Molecular target: HIS-tagged KRT76 tail domain (UniProt Q3UV17)
Experiment: pull-down; HIS or HIS-KRT76 tail domain bound to His-Mag nickel beads, incubated with adult mouse paw pad skin lysate (RIPA) overnight at 4°C; washed four times in Tris-saline pH 7.4 with 1% Triton X-100; immunoblot for CLDN1 and the HIS tag; only the target purified

B1: Claudin1 (CLDN1), endogenous in mouse paw pad skin (protein, UniProt O88551 1-211)
chain: MANAGLQLLGFILASLGWIGSIVSTALPQWKIYSYAGDNIVTAQAIYEGLWMSCVSQSTGQIQCKVFDSLLNLNSTLQATRALMVIGILLGLIAIFVSTIGMKCMRCLEDDEVQKMWMAVIGGIIFLISGLATLVATAWYGNRIVQEFYDPLTPINARYEFGQALFTGWAAASLCLLGGVLLSCSCPRKTTSYPTPRPYPKPTPSSGKDYV
binding: binds
